This is an account of results in PMC9839712.

Protein sequences, listed by entry. Tags and fused reporters are not part of them. Lines headed by an entry give the natural chain unless they say otherwise; changes in a name come on top.
UniProt Q8BNJ6: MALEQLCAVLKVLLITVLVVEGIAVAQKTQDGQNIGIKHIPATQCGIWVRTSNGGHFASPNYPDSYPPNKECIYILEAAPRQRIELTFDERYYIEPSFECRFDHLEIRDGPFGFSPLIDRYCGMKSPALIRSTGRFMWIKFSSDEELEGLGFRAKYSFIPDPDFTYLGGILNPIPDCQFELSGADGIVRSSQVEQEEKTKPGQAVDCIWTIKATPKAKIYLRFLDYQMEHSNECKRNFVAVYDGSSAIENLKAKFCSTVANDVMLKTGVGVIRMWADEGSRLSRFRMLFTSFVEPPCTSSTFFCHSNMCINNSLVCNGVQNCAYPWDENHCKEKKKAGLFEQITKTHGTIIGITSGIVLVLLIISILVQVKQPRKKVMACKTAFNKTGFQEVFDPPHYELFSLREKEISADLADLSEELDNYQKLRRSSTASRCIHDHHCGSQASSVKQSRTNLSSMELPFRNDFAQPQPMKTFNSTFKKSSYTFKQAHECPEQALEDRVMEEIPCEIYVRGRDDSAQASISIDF

The target in this assay is T1, FLAG-LRIG3 (UniProt Q6UXM1).
T1 sequence: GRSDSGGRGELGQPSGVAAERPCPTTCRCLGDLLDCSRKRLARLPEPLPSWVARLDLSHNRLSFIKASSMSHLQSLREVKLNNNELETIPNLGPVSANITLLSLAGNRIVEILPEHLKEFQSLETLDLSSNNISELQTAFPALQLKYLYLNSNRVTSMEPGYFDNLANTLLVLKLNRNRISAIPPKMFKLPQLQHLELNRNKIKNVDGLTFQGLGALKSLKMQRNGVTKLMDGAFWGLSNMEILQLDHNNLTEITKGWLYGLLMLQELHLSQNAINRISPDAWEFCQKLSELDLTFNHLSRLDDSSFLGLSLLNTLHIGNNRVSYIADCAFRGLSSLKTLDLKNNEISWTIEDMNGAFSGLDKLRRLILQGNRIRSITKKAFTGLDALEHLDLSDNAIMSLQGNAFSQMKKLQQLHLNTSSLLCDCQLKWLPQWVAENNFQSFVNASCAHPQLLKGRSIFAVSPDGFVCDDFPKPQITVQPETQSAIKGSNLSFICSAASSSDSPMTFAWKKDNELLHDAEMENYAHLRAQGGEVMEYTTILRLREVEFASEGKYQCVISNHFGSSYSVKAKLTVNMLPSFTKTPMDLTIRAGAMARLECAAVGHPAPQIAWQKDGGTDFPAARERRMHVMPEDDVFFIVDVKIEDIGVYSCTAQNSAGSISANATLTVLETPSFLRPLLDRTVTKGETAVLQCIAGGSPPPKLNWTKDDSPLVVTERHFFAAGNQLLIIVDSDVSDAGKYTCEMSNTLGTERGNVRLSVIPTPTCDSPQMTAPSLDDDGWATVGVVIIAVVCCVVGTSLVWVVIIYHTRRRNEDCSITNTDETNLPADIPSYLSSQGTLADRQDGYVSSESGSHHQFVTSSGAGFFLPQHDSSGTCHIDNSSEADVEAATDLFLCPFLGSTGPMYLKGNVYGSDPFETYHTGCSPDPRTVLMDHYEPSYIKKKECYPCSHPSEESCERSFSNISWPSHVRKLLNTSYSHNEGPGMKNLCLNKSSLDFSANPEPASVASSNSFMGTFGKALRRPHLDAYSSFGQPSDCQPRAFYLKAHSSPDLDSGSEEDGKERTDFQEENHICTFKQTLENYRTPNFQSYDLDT
Kind of assay: co-IP; lysates of HEK293T co-transfected with pLVX-FLAG-LRIG3 and pcDNA3.1-His-NETO2 (full length or deletion mutants); precipitation with the FLAG-specific antibody and protein A/G, 4 °C, 12 h; normal mouse IgG or empty vector as control.

Results are given in words; binding and its absence hold for the method and conditions named. Binding seen in cells or lysates may run through a third protein. A result given as binding can be weak or reduced; the word gives no strength. Where a sequence is shown, tags or fusion partners need not be part of it.

Turning to “His-NETO2-Del2 (deletion of CUB2 domain) (from UniProt Q8BNJ6)”, the binding result is given as “binds”.
